Values from PubChem BioAssay AID1224827 (NIAID, 2016)

- Test: 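Identify regulators of the macrophage TNF-alpha response to bacterial LPS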 (follow-up of hits)
- System: RAW264.7 G9 mouse macrophage reporter clone
- Reagent: single siRNA against mouse genes, 100 nM siRNA
- Time to read-out: siRNA for 2 days, then LPS about 16 h
- Conditions: bacterial lipopolysaccharide (LPS), 10 ng/ml, cells fixed after overnight (about 16 h) stimulation
- Measured: 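TNF promoter reporter red fluorescence in nuclei, background subtracted, normalised per plate and to non-targeting control siRNA, as z-scores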
- Scale: TNF reporter z-score, mean: higher = stronger Tnf promoter reporter signal
- Rule for the call: 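Active siRNA: replicate-mean z-score of 2 or more, or -2 or less; no calls for control wells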
The deposit covers about 3,800 reagents; shown is a random part of them. About 2,200 of all reagents (57%) count as active. 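Active means a strong reporter change in either direction; calls are per siRNA, not per gene; qiagen siRNAs gave weaker effects.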 Entries without a mark were called inactive. The numbers tell different reagents against one gene apart. Further read-outs or replicates are left out here.

Pcolce2 #1
- TNF reporter z-score, mean: 0.512

Pcolce2 #2
- TNF reporter z-score, mean: -0.418

Pcolce2 #3
- TNF reporter z-score, mean: -1.48

Pcolce2 #4
- TNF reporter z-score, mean: -0.148

Pcolce2 #5
- TNF reporter z-score, mean: -0.502

Pcolce2 #6
- TNF reporter z-score, mean: -1.44

Il22b #1
- TNF reporter z-score, mean: 10.3 (active)

Il22b #2
- TNF reporter z-score, mean: -4.6 (active)

Il22b #3
- TNF reporter z-score, mean: -6.45 (active)

Il22b #4
- TNF reporter z-score, mean: 2.7 (active)

Il22b #5
- TNF reporter z-score, mean: 1.58

Il22b #6
- TNF reporter z-score, mean: 1.37

Adamts7 #1
- TNF reporter z-score, mean: 1.1

Adamts7 #2
- TNF reporter z-score, mean: -0.321

Adamts7 #3
- TNF reporter z-score, mean: -4.43 (active)

Adamts7 #4
- TNF reporter z-score, mean: 6.23 (active)

Adamts7 #5
- TNF reporter z-score, mean: 2.72 (active)

Adamts7 #6
- TNF reporter z-score, mean: 1.38

Itpkb #1
- TNF reporter z-score, mean: 4.8 (active)

Itpkb #2
- TNF reporter z-score, mean: -0.796

Itpkb #3
- TNF reporter z-score, mean: -4.32 (active)
